Hit rate of the full screen: of about 390,000 compounds, about 910 (0.23%) were called active. Inconclusive results, whose numbers are uncertain, are shown with a selection of clear calls. The call rests on the fitted dose curve; in most records, active means well fitted inhibition curve with a large enough effect; inconclusive means small, poorly fitted or top-dose-only effect; inactive means no such curve, though single readings can be large or run the other way. Potencies beside an inconclusive call are fits to weak or partial responses and may not hold up.
biological target: Ubiquitin carboxyl-terminal hydrolase 1 (Homo sapiens) (UniProt O94782); test: Inhibitors of USP1/UAF1: Primary Screen; conditions: recombinant USP1/UAF1, Ub-Rhodamine cleavage fluorescence; series mostly up to 57.1 µM; further: nearly all actives have a fitted effect of over 60% in size
In short: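 High-throughput fluorogenic screen: 1nM USP1/UAF1 complex, Ub-Rho substrate 150nM final, 50mM HEPES pH 7.8 with 0.5mM EDTA, 0.1 mg/ml BSA, 1mM TCEP and 0.01% Tween-20.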
Potency means the concentration at half of the fitted maximal effect.

By UniProt entry, the sequences of proteins in these tests, tags left out. Where a name states a change or a piece, a line headed by the entry shows the natural chain unless it says otherwise.
UniProt O94782: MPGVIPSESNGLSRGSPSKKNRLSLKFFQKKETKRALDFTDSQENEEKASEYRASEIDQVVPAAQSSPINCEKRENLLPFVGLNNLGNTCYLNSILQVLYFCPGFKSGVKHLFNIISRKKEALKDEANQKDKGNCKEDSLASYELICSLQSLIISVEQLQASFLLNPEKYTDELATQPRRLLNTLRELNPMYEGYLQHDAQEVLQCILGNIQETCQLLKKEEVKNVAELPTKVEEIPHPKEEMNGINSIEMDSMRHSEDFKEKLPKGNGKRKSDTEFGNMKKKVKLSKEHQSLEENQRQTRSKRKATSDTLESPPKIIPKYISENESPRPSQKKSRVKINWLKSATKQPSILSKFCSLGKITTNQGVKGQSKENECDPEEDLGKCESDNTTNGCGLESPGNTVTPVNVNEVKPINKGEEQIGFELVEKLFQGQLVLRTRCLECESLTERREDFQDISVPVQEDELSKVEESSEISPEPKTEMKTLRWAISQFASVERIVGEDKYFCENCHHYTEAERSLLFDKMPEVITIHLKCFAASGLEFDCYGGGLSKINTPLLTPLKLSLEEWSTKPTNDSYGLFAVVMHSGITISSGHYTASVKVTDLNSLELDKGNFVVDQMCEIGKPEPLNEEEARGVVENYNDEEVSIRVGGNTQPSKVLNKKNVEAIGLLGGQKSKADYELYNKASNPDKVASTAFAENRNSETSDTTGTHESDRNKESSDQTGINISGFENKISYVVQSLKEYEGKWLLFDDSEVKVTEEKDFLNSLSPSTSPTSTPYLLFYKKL

Potency, inactive:
Cc1ccc(NC(=O)c2ccc3c(c2)C(=O)N(c2ccccc2C)C3=O)nc1
COc1ccc2cc(-c3nc4ccc(C(=O)O)cc4[nH]3)c(=O)oc2c1
COCCCNC(=O)CCCCn1c(=O)c2ccccc2n(CC(=O)Nc2ccc(C)cc2C)c1=O

Potency, inconclusive:
Cc1cccc(C)c1Nc1sc(C(=O)c2ccccc2)c(N)c1C(=O)Nc1ccc(F)cc1 100 µM [inhibitor, partial curve, poor fit]
COC(=O)[C@H](Cc1ccccc1)[C@@H](C)OS(N)(=O)=O 0.631 µM [inhibitor, full curve]
C[C@H]1CCCCO[C@H](CN(C)C(=O)Nc2ccc(F)cc2)[C@@H](C)CN([C@@H](C)CO)C(=O)c2cc(NC(=O)Nc3ccc4c(c3)OCO4)ccc2O1 39.8 µM [inhibitor, partial curve]
COc1cc(CNc2ccc(N3CCCC3)cc2)ccc1OCc1ccccc1 35.5 µM [inhibitor, partial curve]
Cc1ccc(/C=C/c2ccc(N(C)C)cc2)[n+](C)c1 39.8 µM [inhibitor, partial curve]
Cn1nc(-c2ccc(C(=O)Nc3ccc(F)cc3)cc2)c2ccccc2c1=O 44.7 µM [inhibitor, partial curve, poor fit]
CN1CCN(C(=O)/C(=C/c2ccc(N(C)C)cc2)NC(=O)c2ccccc2)CC1 35.5 µM [inhibitor, single point]
CCN1C(=O)c2cccc3c(NC(=O)c4ccc(OC)c(OC)c4)ccc1c23 14.1 µM [inhibitor, partial curve]
O=C(c1cccc([N+](=O)[O-])c1)N1CCN(C/C=C/c2ccccc2)CC1 5.01 µM [inhibitor, partial curve]
CC1CCN(c2ccc3c(c2)S(=O)(=O)c2cccc(C(=O)NC4CCCCC4)c2C3=O)CC1 35.5 µM [inhibitor, partial curve, poor fit]
CC(=O)OCCCN1c2ccccc2Nc2nnc(-c3ccccc3)cc21 50.1 µM [inhibitor, partial curve, poor fit]
CC(=O)N1CCc2c(sc(NC(=O)c3ccc([N+](=O)[O-])o3)c2C(N)=O)C1 28.2 µM [inhibitor, single point]
CC(C)(C)NC(=O)C(c1ccc(F)cc1)N(CCc1ccccc1)C(=O)c1ccn[nH]1 (stereo unspecified) 44.7 µM [inhibitor, partial curve, poor fit]

Copied from the entries so far (two entries):
Potency, inconclusive:
CC(=O)N1CCc2c(sc(NC(=O)c3ccc([N+](=O)[O-])o3)c2C(N)=O)C1 28.2 µM [inhibitor, single point]
CC(C)(C)NC(=O)C(c1ccc(F)cc1)N(CCc1ccccc1)C(=O)c1ccn[nH]1 (stereo unspecified) 44.7 µM [inhibitor, partial curve, poor fit]

— PubChem BioAssay AID743255 (National Center for Advancing Translational Sciences (NCATS), 2014)
